Source: EP0339504A2 (priority 1988, dated 1989)
Some peptides are written in HELM: one residue between dots, names in brackets for other building blocks, links after the first $.

Assay: peptide made by a vendor (peptide synthesis; p-alkoxybenzyl alcohol resins from Bachem Inc.; Pentafluorophenyl esters; hydroxybenzotriazole assisted or preformed symmetric a)
Conditions: whole synthesis, reverse phase chromatography on Pharmacia FPLC PepRPC HR5/5 column; FAB-MS

PEPTIDE1{R.I.Q.R.G.P.G.R.A.F.V.T.I.G.K}$$$$V2.0
purity (crude or final not stated): 74%
